The source gives many values for each of these; only a part stands here.
Columns and labels:
[1] = Level of impurities in dependency on Otamixaban concentration and autoclaving (HPLC), Example 7; format: physicochemical
Text: The appropriate pH value was adjusted by using sodium hydroxide solution (1 M sodium hydroxide) or diluted hydrochloric acid (1 M hydrochloric acid).

[2] = Level of impurities in dependency on pH and repeated autoclaving (HPLC), Example 6; format: physicochemical
Protocol: The appropriate pH value was adjusted by using sodium hydroxide solution (1 M sodium hydroxide) or diluted hydrochloric acid (1 M hydrochloric acid). […] HP Zorbax SB-C18, 3.5 μm • Column material: stainless steel • Column length: 150 mm • Column internal diameter: 4.6 mm • Equilibration of the column: Column must be rinsed with mobile phase B (% B=25) for at least 60 minutes at a flow rate of 1 mL/min prior to sample injection. • Storage of the column: Column can be stored in acetonitrile/water=20/80 (v/v) Mobile Phase A […] The mobile phase was filtered through a 1.5 μm filter. Typically, add 500 mL of mobile phase A to 500 mL of acetonitrile. Mix and degas. [table] Procedure • Flow rate: 1 mL/min • Injection volume: 40 μl • Auto sampler temperature: Set autosampler temperature at +12° C. • Column temperature: […]

## COC(=O)[C@H](Cc1cccc(C(=N)N)c1)[C@@H](C)NC(=O)c1ccc(-c2cc[n+]([O-])cc2)cc1 (mixture of isomers) [Otamixaban, Methyl (2R,3R)-2-{3-[amino(imino)methyl]benzyl}-3-{[4-(1-oxidopyridin-4-yl)benzoyl]amino}butanoate]
[1]; pH 4.2-4.3, 5 mg/mL, vial 5 mL, 20 min 123° C., number of autoclaving 0
  Increase of Formula III (carbamoyl-benzyl butyric acid methyl ester): 0.2%
[1]; pH 4.2-4.3, 5 mg/mL, vial 5 mL, 20 min 123° C., number of autoclaving 1
  Increase of Formula III (carbamoyl-benzyl butyric acid methyl ester): 0.9%
[1]; pH 4.2-4.3, 5 mg/mL, vial 5 mL, 20 min 123° C., number of autoclaving 2
  Increase of Formula III (carbamoyl-benzyl butyric acid methyl ester): 1.7%
[1]; pH 4.2-4.3, 5 mg/mL, vial 5 mL, 20 min 123° C., number of autoclaving 3
  Increase of Formula III (carbamoyl-benzyl butyric acid methyl ester): 2.5%
[1]; pH 4.2, 1 mg/mL, vial 50 mL, 20 min […] C., number of autoclaving 0
  Increase of Formula III (carbamoyl-benzyl butyric acid methyl ester): 0.4%
[1]; pH 4.2, 1 mg/mL, vial 50 mL, 20 min […] C., number of autoclaving 1
  Increase of Formula III (carbamoyl-benzyl butyric acid methyl ester): 1.3%
[1]; pH 4.2, 1 mg/mL, vial 50 mL, 20 min […] C., number of autoclaving 2
  Increase of Formula III (carbamoyl-benzyl butyric acid methyl ester): 2.3%
[1]; pH 4.2, 1 mg/mL, vial 50 mL, 25 min 125° C., number of autoclaving 0
  Increase of Formula III (carbamoyl-benzyl butyric acid methyl ester): 0.4%
[1]; pH 4.2, 1 mg/mL, vial 50 mL, 25 min 125° C., number of autoclaving 1
  Increase of Formula III (carbamoyl-benzyl butyric acid methyl ester): 1.3%
[1]; pH 4.2, 5 mg/mL, vial 5 mL, 20 min 123° C., number of autoclaving 0
  Increase of Formula III (carbamoyl-benzyl butyric acid methyl ester): 0.3%
[1]; pH 4.2, 5 mg/mL, vial 5 mL, 20 min 123° C., number of autoclaving 1
  Increase of Formula III (carbamoyl-benzyl butyric acid methyl ester): 1.0%
[1]; pH 4.2, 5 mg/mL, vial 5 mL, 20 min 123° C., number of autoclaving 2
  Increase of Formula III (carbamoyl-benzyl butyric acid methyl ester): 1.8%
[1]; pH 4.2, 5 mg/mL, vial 5 mL, 20 min 123° C., number of autoclaving 3
  Increase of Formula III (carbamoyl-benzyl butyric acid methyl ester): 2.6%
[1]; pH 4.2, 5 mg/mL, vial 50 mL, 25 min 125° C., number of autoclaving 0
  Increase of Formula III (carbamoyl-benzyl butyric acid methyl ester): 0.4%
[1]; pH 4.2, 5 mg/mL, vial 50 mL, 25 min 125° C., number of autoclaving 1
  Increase of Formula III (carbamoyl-benzyl butyric acid methyl ester): 1.4%
[1]; pH 4.2, 50 mg/mL, vial 5 mL, 20 min 123° C., number of autoclaving 0
  Increase of Formula III (carbamoyl-benzyl butyric acid methyl ester): 0.3%
[1]; pH 4.2, 50 mg/mL, vial 5 mL, 20 min 123° C., number of autoclaving 1
  Increase of Formula III (carbamoyl-benzyl butyric acid methyl ester): 1.1%
[1]; pH 4.2, 50 mg/mL, vial 5 mL, 20 min 123° C., number of autoclaving 2
  Increase of Formula III (carbamoyl-benzyl butyric acid methyl ester): 1.9%
[1]; pH 4.2, 50 mg/mL, vial 5 mL, 20 min 123° C., number of autoclaving 3
  Increase of Formula III (carbamoyl-benzyl butyric acid methyl ester): 2.7%
[2]; pH 2.5, number of autoclaving 3
  Increase of Formula II (carbamimidoyl-benzyl butyric acid): 0.79%
[2]; pH 3.0, number of autoclaving 0
  Increase of Formula II (carbamimidoyl-benzyl butyric acid): 0.08%
[2]; pH 3.0, number of autoclaving 1
  Increase of Formula II (carbamimidoyl-benzyl butyric acid): 0.18%
[2]; pH 3.0, number of autoclaving 2
  Increase of Formula II (carbamimidoyl-benzyl butyric acid): 0.26%
[2]; pH 3.0, number of autoclaving 3
  Increase of Formula II (carbamimidoyl-benzyl butyric acid): 0.36%
